Publication PMC5768685
No constants are given. Whether binding was seen depends on the method and setting. Binding seen in cells or lysates may run through a third protein. Some results given as binding are weak or reduced against the parent protein; the word gives no strength. Sequences can lack the tags named with a protein.

Protein sequences, listed by entry. Tags and fused reporters are not part of them. Lines headed by an entry give the natural chain unless they say otherwise; changes in a name come on top.
UniProt Q07820: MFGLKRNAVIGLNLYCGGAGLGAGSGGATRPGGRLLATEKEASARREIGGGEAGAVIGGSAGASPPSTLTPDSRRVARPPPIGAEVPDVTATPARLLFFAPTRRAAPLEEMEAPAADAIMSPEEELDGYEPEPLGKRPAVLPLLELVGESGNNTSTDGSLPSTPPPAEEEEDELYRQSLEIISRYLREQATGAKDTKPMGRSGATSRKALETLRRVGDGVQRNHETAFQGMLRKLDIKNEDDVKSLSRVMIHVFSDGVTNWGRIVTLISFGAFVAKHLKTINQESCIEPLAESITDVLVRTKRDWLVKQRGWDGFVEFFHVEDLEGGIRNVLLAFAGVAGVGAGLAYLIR

Target: T1, FLAG-USP13-C345A (human) (UniProt Q92995)
T1 sequence: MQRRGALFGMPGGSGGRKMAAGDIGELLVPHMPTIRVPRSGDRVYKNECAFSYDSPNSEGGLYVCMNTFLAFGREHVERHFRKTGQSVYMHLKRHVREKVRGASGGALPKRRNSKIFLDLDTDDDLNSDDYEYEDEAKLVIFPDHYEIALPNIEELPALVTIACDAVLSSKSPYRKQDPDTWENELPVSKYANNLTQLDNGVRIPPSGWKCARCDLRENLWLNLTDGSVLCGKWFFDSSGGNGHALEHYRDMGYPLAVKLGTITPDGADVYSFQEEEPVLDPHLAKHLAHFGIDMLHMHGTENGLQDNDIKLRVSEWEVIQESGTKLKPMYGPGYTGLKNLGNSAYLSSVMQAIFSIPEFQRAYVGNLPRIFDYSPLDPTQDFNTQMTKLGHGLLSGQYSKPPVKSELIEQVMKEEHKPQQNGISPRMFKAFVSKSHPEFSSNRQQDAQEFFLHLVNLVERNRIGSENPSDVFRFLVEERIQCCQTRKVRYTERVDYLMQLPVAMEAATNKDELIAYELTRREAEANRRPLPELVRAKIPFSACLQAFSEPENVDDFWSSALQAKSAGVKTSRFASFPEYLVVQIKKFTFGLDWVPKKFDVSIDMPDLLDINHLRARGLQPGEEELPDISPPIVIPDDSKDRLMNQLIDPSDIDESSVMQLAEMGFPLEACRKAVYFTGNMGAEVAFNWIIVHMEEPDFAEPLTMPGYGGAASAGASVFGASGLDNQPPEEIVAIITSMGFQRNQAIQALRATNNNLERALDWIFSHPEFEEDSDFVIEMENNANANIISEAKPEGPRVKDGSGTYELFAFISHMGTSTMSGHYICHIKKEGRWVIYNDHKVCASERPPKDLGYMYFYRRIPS
Assay: co-IP; HEK293T transfected for 48 h, MG-132 for 8 h (Fig. 4a); IP lysis buffer (50 mM Tris-HCl pH 8.0, 150 mM NaCl, 10 mM KCl, 1.5 mM MgCl2, 0.5% NP-40, 10% glycerol, 1 mM EDTA); FLAG-USP13 precipitated on anti-FLAG M2 beads at 4 °C overnight, eluted with 3×FLAG peptide; MCL1 detected by blot

For “MCL1 in lysate of HEK293T cells transfected with FLAG-USP13 or FLAG-USP13-C345A (from UniProt Q07820 1-350)”, the binding was “binds”.
